Data reported in paper PMC3435375.
No constants are given. Whether binding was seen depends on the method and setting. For some assays here: In cells and extracts the contact can be indirect. Where a sequence is shown, tags or fusion partners need not be part of it. Values belong to the binder of their own block, whether it stands above or below them.

Assays:
[1] = molecular target: GFP-KRIT1B (EGFP-tagged KRIT1B, pEGFP-KRIT1B); assay: co-IP; HEK293 cells co-transfected with EGFP-KRIT1A or EGFP-KRIT1B and 2FLAG-Nd1-L; precipitated with anti-KRIT1, blotted with anti-FLAG
[2] = molecular target: GST-K1BFERM, the FERM domain of KRIT1B fused to GST; assay: pull-down; GST fusion proteins (40 ug) immobilised on glutathione-sepharose 4B beads, incubated 1 h at room temperature with HEK293 lysates overexpressing GFP- or 2FLAG-tagged proteins; washed three times with PBS; anti-GFP or anti-FLAG western blot; only the target purified
[3] = molecular target: GAL4BD fusion of K1BFERM, the FERM domain of KRIT1B (418-697) (pGBKT7-K1BFERM); assay: two-hybrid; small-scale assay; pGADT7-Nd1-L cotransformed with pGBKT7 KRIT1 constructs into AH109; growth on medium lacking His and Ade (HIS3, ADE2) and beta-galactosidase filter assay (LACZ)
[4] = molecular target: GAL4BD fusion of K1BΔ207, the N-terminal truncated portion of KRIT1B (208-697); assay: as above
[5] = molecular target: GAL4BD fusion of full-length KRIT1B (pGBKT7); assay: as above

binding [1]: no binding | binding [2]: no binding
B1: 2FLAG-Nd1-L (pCR-2FLAG-Nd1-L, murine full-length Nd1-L) (protein, UniProt Q920Q8-1 1-642)
chain: MIPNGYLMFEDENFIESSVAKLNALRKSGQFCDVRLQVCGHEMLAHRAVLACCSPYLFEIFNSDSDPHGVSHVKLDDLNPEAVEVLLNYAYTAQLKADKELVKDVYSAAKKLKMDRVKQVCGDYLLSRMDVTSCISYRNFASCMGDSRLLNKVDAYIQEHLLQISEEEEFLKLPRLKLEVMLEDNVCLPSNGKLYTKVINWVQRSIWENGDSLEELMEEVQTLYYSADHKLLDGNPLDGQAEVFGSDDDHIQFVQKKPPRENGHKQISGSSTGCLSSPNASMQSPKHEWKIVASEKTSNNTYLCLAVLDSTFCVIFLHGRNSPQSSPTSTPKLSKSLSFEMQPDELLEKPMSPMQYARSGLGTAEMNGKLIAAGGYNREECLRTVECYDPHTDHWSFLAPMRTPRARFQMAVLMGQLYVVGGSNGHSDDLSCGEMYDPNIDDWTPVPELRTNRCNAGVCALNGKLYIVGGSDPYGQKGLKNCDVFDPVTKSWTSCAPLNIRRHQSAVCELGGYLYIIGGAESWNCLNTVERYNPENNTWTLIAPMNVARRGAGVAVLDGKLFVGGGFDGSHAISCVEMYDPTRNEWKMMGNMTSPRSNAGITTVGNTIYAVGGFDGNEFLNTVEVYNPQSNEWSPYTKIFQF

binding [3]: no binding | binding [4]: no binding | binding [5]: no binding
B2: GAL4AD fusion of full-length Nd1-L (pGADT7-Nd1-L) (protein, UniProt Q920Q8-1 1-642)
chain: B1 chain
